Measured values: the supplement of paper PMC11006884
This list holds what a sample rich in targets with a hit left over. The data scatter; read single values as rough. The entries are a selection whose mix differs from that of the whole data set.

Sequences of proteins named here, by UniProt entry; tags and fusion partners are left off. A change or cut given only in a name is not applied to a line headed by its entry.
UniProt Q9NUQ8: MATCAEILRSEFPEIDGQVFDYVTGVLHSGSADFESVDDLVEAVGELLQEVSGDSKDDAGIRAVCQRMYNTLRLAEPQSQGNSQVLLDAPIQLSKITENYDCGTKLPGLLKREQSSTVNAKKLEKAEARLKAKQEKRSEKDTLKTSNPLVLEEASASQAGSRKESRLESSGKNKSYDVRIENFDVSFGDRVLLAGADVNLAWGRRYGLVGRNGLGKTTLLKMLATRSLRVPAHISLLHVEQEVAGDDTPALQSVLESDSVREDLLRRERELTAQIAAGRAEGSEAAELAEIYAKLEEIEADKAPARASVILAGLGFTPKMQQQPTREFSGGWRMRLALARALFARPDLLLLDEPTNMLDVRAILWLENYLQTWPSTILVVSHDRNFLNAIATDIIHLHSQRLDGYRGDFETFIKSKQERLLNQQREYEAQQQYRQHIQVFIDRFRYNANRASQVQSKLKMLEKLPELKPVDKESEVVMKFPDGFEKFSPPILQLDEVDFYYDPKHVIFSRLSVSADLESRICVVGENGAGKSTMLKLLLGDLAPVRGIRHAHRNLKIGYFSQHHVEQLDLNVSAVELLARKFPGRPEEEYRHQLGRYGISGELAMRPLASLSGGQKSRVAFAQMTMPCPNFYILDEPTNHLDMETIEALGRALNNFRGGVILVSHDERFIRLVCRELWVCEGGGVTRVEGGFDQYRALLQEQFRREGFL
UniProt Q9UBT2: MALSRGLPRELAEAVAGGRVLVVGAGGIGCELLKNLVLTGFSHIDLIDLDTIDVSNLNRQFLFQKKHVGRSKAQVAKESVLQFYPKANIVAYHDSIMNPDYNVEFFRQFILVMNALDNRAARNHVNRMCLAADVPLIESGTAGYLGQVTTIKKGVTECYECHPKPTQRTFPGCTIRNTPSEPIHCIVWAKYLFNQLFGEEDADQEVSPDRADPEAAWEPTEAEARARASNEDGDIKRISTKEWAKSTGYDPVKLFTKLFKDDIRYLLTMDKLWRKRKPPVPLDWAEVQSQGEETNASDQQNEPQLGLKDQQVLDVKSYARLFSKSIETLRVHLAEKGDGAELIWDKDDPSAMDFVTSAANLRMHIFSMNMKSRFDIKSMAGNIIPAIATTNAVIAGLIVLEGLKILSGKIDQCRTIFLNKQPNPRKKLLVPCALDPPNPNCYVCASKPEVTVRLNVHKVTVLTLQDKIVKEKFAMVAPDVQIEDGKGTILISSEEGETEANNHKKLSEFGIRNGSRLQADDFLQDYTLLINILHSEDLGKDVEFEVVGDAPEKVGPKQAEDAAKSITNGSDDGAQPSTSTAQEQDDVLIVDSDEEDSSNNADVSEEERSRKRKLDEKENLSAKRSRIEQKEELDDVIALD
UniProt Q9NZB2: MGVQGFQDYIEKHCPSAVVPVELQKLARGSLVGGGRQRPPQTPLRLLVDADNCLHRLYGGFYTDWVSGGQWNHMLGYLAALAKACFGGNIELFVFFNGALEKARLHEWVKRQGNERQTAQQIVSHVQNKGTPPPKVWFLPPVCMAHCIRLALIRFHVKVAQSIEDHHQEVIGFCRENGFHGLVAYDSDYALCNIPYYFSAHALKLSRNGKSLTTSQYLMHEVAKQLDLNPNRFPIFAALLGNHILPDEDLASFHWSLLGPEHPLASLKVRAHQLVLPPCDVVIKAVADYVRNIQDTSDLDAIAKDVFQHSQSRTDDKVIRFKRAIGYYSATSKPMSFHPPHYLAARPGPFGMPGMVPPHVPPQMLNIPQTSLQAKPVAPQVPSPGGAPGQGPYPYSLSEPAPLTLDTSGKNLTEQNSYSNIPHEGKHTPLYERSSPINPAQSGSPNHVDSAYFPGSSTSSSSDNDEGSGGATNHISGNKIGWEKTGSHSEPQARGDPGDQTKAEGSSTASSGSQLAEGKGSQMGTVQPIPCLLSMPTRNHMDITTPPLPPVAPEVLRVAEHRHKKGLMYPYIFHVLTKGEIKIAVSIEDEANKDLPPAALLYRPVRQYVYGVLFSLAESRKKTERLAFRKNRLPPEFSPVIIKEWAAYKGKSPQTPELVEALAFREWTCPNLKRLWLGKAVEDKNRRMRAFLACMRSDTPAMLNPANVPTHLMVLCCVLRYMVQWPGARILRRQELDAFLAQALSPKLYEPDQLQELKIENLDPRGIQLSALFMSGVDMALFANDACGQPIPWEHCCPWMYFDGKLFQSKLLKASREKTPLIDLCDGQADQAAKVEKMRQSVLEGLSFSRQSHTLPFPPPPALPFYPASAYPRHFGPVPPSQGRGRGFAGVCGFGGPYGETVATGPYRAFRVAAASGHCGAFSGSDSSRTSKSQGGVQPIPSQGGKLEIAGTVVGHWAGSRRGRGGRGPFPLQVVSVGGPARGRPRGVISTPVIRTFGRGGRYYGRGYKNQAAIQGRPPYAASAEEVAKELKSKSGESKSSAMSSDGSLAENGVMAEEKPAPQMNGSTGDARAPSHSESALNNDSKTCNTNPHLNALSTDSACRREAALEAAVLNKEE
UniProt Q9UBF2: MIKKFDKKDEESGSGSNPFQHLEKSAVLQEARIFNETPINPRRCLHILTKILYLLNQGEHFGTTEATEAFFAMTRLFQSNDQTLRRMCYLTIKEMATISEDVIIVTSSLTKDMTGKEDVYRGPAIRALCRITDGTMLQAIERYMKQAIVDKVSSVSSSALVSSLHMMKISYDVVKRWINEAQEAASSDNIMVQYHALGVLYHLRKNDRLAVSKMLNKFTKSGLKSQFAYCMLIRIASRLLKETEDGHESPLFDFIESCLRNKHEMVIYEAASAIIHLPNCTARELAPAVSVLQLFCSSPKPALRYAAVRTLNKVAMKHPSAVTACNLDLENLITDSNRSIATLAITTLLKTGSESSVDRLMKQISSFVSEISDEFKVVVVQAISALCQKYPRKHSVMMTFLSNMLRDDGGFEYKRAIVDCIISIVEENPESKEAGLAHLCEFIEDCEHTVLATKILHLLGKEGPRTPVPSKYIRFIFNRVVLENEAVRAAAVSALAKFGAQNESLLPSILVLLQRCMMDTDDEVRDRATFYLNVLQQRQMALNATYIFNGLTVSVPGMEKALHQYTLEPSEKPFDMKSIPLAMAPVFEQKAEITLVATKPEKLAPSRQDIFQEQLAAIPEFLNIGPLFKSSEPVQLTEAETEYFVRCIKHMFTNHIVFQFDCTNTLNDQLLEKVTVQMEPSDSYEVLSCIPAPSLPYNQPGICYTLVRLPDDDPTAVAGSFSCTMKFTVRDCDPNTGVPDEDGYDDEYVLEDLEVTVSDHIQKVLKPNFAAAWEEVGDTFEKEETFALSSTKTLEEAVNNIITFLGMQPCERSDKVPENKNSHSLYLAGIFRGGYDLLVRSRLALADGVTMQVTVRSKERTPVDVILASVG
UniProt Q9NWX6: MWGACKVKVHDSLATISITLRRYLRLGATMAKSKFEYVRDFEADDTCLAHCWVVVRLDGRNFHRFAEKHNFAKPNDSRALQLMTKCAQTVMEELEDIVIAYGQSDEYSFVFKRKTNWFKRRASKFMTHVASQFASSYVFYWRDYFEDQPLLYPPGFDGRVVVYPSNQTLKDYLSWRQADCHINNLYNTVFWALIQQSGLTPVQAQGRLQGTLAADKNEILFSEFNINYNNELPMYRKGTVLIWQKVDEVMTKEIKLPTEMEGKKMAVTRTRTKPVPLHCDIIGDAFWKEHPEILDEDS
UniProt Q9P1Y6: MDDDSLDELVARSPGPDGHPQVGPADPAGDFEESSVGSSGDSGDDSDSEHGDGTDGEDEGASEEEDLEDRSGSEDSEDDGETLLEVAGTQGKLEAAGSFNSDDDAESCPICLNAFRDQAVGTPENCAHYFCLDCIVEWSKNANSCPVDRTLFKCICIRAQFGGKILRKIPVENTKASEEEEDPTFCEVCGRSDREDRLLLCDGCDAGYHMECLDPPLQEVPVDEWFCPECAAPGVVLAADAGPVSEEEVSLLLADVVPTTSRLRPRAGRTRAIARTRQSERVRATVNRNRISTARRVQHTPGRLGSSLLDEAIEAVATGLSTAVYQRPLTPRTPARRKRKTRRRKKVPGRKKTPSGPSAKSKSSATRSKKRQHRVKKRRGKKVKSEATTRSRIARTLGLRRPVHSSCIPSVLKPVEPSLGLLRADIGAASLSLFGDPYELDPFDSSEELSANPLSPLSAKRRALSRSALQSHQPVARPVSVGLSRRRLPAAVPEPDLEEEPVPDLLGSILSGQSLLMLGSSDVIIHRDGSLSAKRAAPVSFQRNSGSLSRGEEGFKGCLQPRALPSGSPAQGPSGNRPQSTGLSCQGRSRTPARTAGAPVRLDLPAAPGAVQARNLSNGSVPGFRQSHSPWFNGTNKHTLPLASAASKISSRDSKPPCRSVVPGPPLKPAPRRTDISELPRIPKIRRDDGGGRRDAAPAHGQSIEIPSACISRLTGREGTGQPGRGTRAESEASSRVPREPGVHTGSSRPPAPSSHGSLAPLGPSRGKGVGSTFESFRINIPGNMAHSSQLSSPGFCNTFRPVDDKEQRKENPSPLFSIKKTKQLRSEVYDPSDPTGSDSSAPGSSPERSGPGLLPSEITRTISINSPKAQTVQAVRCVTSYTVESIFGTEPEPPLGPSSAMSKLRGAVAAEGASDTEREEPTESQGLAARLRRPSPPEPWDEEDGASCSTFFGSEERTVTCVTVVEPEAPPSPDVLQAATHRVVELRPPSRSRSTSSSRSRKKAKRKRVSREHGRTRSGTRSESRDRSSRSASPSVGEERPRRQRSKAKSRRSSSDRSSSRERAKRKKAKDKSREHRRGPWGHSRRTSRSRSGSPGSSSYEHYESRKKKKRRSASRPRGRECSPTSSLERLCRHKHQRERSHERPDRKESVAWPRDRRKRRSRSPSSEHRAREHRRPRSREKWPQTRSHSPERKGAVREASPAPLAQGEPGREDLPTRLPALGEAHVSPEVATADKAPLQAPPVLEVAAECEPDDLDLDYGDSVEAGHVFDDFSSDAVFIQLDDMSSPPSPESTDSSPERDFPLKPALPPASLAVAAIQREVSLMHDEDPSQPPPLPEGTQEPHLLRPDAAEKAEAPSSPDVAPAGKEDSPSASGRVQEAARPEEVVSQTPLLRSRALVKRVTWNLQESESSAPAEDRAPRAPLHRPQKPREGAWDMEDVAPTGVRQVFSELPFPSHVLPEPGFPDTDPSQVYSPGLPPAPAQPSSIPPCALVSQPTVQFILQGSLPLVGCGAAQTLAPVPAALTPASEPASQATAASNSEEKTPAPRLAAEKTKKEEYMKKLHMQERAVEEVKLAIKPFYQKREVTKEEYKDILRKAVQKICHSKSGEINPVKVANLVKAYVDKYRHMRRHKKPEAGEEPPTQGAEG
UniProt Q9UHB6: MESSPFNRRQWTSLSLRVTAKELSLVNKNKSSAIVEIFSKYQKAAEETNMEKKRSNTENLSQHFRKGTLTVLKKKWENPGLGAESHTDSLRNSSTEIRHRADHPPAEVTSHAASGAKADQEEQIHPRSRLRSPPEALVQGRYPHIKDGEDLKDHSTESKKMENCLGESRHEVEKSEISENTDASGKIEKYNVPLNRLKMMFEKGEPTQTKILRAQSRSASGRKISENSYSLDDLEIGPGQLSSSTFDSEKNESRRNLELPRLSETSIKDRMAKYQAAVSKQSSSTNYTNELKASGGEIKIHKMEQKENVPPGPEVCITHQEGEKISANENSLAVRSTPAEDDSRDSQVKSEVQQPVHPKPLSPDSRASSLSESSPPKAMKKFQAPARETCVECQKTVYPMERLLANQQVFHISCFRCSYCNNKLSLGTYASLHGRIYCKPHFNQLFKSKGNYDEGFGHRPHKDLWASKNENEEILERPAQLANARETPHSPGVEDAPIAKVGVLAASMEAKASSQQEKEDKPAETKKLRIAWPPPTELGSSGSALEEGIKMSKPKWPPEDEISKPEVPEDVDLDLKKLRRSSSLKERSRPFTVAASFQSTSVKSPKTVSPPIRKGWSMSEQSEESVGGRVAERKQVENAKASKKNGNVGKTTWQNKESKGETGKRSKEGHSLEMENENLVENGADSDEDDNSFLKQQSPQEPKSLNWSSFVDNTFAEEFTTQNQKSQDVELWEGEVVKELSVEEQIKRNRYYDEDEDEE
UniProt Q9P2T1: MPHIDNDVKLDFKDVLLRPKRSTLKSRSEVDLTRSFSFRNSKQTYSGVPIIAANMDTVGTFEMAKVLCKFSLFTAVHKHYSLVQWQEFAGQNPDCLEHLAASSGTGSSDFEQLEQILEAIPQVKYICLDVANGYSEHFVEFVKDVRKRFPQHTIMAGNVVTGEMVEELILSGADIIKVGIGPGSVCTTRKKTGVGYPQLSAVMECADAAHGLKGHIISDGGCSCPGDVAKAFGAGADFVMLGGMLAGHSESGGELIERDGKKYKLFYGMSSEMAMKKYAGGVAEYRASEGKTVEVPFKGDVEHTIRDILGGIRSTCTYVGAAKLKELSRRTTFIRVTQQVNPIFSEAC
UniProt Q9P1U0, whole entry: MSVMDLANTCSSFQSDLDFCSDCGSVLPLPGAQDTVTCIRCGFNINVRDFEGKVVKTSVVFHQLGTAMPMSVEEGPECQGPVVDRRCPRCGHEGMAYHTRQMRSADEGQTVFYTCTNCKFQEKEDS

compound: COC(=O)/C=C/c1ccccc1 [methyl cinnamate]; test: log2 ratio of iodoacetamide-alkyne labeling of the cysteine site, DMSO over compound (competition); higher = stronger covalent engagement of the cysteine by the compound, active = 1 or more; details: 500 µM; treatment time 1 h; system: HEK293T cell lysate
Summary of the method: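 After 1 h at ambient temperature with vehicle or electrophile (500 µM), HEK293T lysate (2 mg/mL) was labelled for 1 h with iodoacetamide alkyne and clicked to sCIP-TMT reagents. Pooled samples were trypsin-digested overnight at 37 °C, streptavidin-enriched, acid-eluted and analysed by Orbitrap Eclipse LC-MS/MS with FAIMS, then quantified in FragPipe over three replicates with duplicate channels. A cysteine's log2 competition ratio is its mean control-channel over mean compound-channel reporter intensity. Cysteines quantified in only one replicate were not included.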

Row | Target | log2 ratio of iodoacetamide-alkyne labeling
1 | UniProt Q9P289_C352 | inactive: 0.0625
2 | ITSN2 C1194 (UniProt Q9NZM3) | inactive: -0.0951
3 | CPSF2 C621 (UniProt Q9P2I0) | inactive: -0.0328
4 | UniProt Q9NWV8_C222 | inactive: 0.249
5 | SAE1 C214 (UniProt Q9UBE0) | inactive: 0.0405
6 | ABCF3 C628 (UniProt Q9NUQ8) | inactive: -0.233
7 | UniProt Q9P289_C410 | inactive: 0.392
8 | UBA2 C413 (UniProt Q9UBT2) | inactive: -0.282
9 | POLR3E C456 (UniProt Q9NVU0) | inactive: 0.481
10 | DDX18 C472 (UniProt Q9NVP1) | inactive: -0.00927
11 | AASS C534 (UniProt Q9UDR5) | inactive: 0.00927
12 | NDRG3 C359 (UniProt Q9UGV2) | inactive: 0.402
13 | MRPS18A C108 (UniProt Q9NVS2) | inactive: 0.0733
14 | FAM120A C279 (UniProt Q9NZB2) | inactive: -0.204
15 | COPG2 C296 (UniProt Q9UBF2) | inactive: -0.204
16 | UniProt Q9NUQ3_C56 | inactive: 0.232
17 | LARS C546 (UniProt Q9P2J5) | inactive: -0.0676
18 | THG1L C279 (UniProt Q9NWX6) | inactive: -0.253
19 | ABCF2 C411 (UniProt Q9UG63) | inactive: 0.319

Row | Target | log2 ratio of iodoacetamide-alkyne labeling
20 | PHRF1 C878 (UniProt Q9P1Y6) | inactive: 0.151
21 | NXF1 C252 (UniProt Q9UBU9) | inactive: 0.196
22 | UniProt Q9NUQ3_C480 | inactive: 0.277
23 | CPSF2 C763 (UniProt Q9P2I0) | inactive: 0.167
24 | MRPS18A C186 (UniProt Q9NVS2) | inactive: -0.0367
25 | RBM28 C71 (UniProt Q9NW13) | inactive: 0.0459
26 | BCCIP C141 (UniProt Q9P287) | inactive: 0.156
27 | DNMT3B C651 (UniProt Q9UBC3) | inactive: -0.0729
28 | GNL3L C342 (UniProt Q9NVN8) | inactive: 0.194
29 | LIMA1 C316 (UniProt Q9UHB6) | inactive: 0.178
30 | FTSJ1 C49 (UniProt Q9UET6) | inactive: 0.294
31 | NECAP2 C133 (UniProt Q9NVZ3) | inactive: 0.397
32 | UTP6 C309 (UniProt Q9NYH9) | inactive: 0.0434
33 | TBC1D13 C145 (UniProt Q9NVG8) | inactive: -0.0275
34 | UBA2 C185 (UniProt Q9UBT2) | inactive: 0.0878
35 | GMPR2 C348 (UniProt Q9P2T1) | inactive: 0.121
36 | ZNRD1 C78 (UniProt Q9P1U0) | inactive: 0.249
37 | MPP6 C103 (UniProt Q9NZW5) | inactive: 0.188

Some of the entries so far, in markdown.

| Row | Target | log2 ratio of iodoacetamide-alkyne labeling |
| --- | --- | --- |
| 25 | RBM28 C71 (UniProt Q9NW13) | inactive: 0.0459 |
| 34 | UBA2 C185 (UniProt Q9UBT2) | inactive: 0.0878 |
